Experimental data taken from patent publication US20260232684A1, “FLT3 INHIBITORS AND METHODS OF USING THE SAME” (BIOVENTURES, LLC, priority 2023, published 2026).

Test system: Ba/F3 cells transduced with mutagenized FLT3-ITD
Test: Saturation mutagenesis resistance selection (XL1-Red mutagenized FLT3-ITD)
Assay type: cell-based
Conditions: cells cultured in 120 nM drug; Western blot quantification normalized to GAPDH
Source text: FIG. 10. (A) Schematic depicting the saturation mutagenesis experimental design and the range of concentrations for compound 1 and compound 2 to select for resistant cells; (B) Population doublings of XL1-Red-mutagenized FLT3-ITD plasmid-transduced Ba/F3 cells in escalating concentrations of compound 1 and compound 2. Arrows indicate the timepoint of passage when a concentration of 0.1 million cells/mL was achieved; (C) Western blot analysis of lysates collected from transduced Ba/F3 cells cultured in (lane 1) vehicle; (lane 2) 120 nM of compound 1; (lane 3) 120n M of compound 2 (lane 4) Ba/F3 cells transduced with MSCVpuro; (lane M) size marker. […] Left table: identity of mutations detected at escalating concentrations of compounds 1 and 2. Right table: IC50 values of compounds 1 and 2 in Ba/F3 cells transformed to growth factor independence with FLT3-ITD and various mutant isoforms.
To determine if these compounds are potentially vulnerable to novel secondary mutations in FLT3-ITD, Ba/F3 cells were transduced with retrovirus generated using MSCVpuro/FLT3-ITD plasmid purified from the XL1-Red bacterial strain, which is deficient in DNA mismatch repair and introduces random point mutations. This assay has successfully identified point mutations for other FLT3 TKIs that were subsequently validated in samples obtained from patients with acquired resistance. […]

CN(C)CCNc1ncc(F)c(-c2cnc3cc(-c4cnn(C)c4)ccn23)n1 [Compound 1]
FLT3-ITD overexpression in resistant cells compared with cells propagated in vehicle: 28.89 ×

CC(C)(C)c1cc(NC(=O)Cc2ccc(-c3cnc4cc(-c5cnn(CCN6CCOCC6)c5)ccc4n3)cc2)no1 [Compound 2, N-(5-(tert-butyl)isoxazol-3-yl)-2-(4-(6-(1-(2-morpholinoethyl)-1H-pyrazol-4-yl)quinoxalin-2-yl)phenyl) acetamide]
FLT3-ITD overexpression in resistant cells compared with cells propagated in vehicle: 17.11 ×
